Results from PubChem BioAssay AID2685 (National Center for Advancing Translational Sciences (NCATS), 2010).
The list shows a part of the results. Further columns of the screen follow, without active or inactive calls. The list favours compounds with an active or inconclusive main result. Words in brackets tell the shape of the fitted curve; partial curves, single points and poor fits give uncertain potencies.

Test: qHTS Assay for Lipid Storage Modulators in Drosophila S3 Cells;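 as to cell number change: cells counted by Cell Tracker Red CMTPX staining in the red channel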
Conditions: BODIPY lipid droplet fluorescence, 18-24 h; for cell number change: measured here: cell count max response, cells fed with added oleic acid
Procedure, shortened: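 Drosophila S3 cells loaded with oleic acid (400 uM, as added) and compounds at several concentrations; lipid droplets imaged by 488-nm laser-scanning cytometry, 500–530 nm intensity and object ratio to cell channel. Percent activity normalized to 20 uM Triacsin C.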

[1] = measured here: lipid fluorescence (Fed channel) AC50, cells fed with added oleic acid
[2] = measured here: cell number channel AC50, cells fed with added oleic acid

Q: What does the source list for `COc1ccc(CC(=O)N2CCC(Nc3nc4ccccc4n3Cc3ccc(F)cc3)CC2)cc1`?
A: cell number change: -29%; AC50 [1]: 16400 nM [falling, single point]

Q: With `CSc1ccc(Cn2nnc(C(=O)NCc3ccccc3)c2N)cc1` as the molecule, how does the cell number change read?
A: The cell number change was 34.8%.

Q: And the AC50 [2]?
A: Its AC50 is 206 nM [rising, full curve, poor fit].

Q: And the AC50 [1]?
A: Its AC50 is 580 nM [rising, single point].

Q: For `O=C(CN1CCOCC1)Nc1ccccc1Cl`, which cell number change is on record?
A: Its cell number change is -44.9%.

Q: What about the AC50 [2] of the same molecule?
A: The AC50 was 2910 nM [falling, full curve].

Q: What about the AC50 [1] of the same molecule?
A: Its AC50 is 2590 nM [falling, full curve].

Q: With `N#CC1=C(N)C(C#N)(C#N)C(c2ccncc2)C2CN(C(=O)OCc3ccccc3)CC=C12` (centres undefined) as the molecule, how does the cell number change read?
A: The cell number change was -24.8%.

Q: What about the AC50 [1] of the same molecule?
A: The AC50 was 6510 nM [falling, partial curve].

Q: With `CCC1S/C(=C(\C#N)C(=O)NCc2ccco2)N(c2ccc(Br)cc2)C1=O` (centres undefined) as the molecule, how does the cell number change read?
A: Its cell number change is 30.4%.

Q: And the AC50 [2]?
A: The AC50 was 11600 nM [rising, partial curve].

Q: What about the AC50 [1] of the same molecule?
A: The AC50 was 6510 nM [rising, single point].

Q: With `CNC(=O)COc1coc(CN2CCN(c3ccc(OC)cc3)CC2)cc1=O` as the molecule, how does the cell number change read?
A: The cell number change was 14.4%.

Q: And the AC50 [1]?
A: Its AC50 is 6510 nM [rising, partial curve, poor fit].

Q: For `N#Cc1c(-c2cccc(Cl)c2)[nH]c(=S)[nH]c1=O`, which cell number change is on record?
A: Its cell number change is 10.5%.

Q: And the AC50 [1]?
A: The AC50 was 580 nM [rising, single point].

Q: For `COc1ccc(CCn2c(N)c(S(=O)(=O)c3cccs3)c3nc4ccccc4nc32)cc1OC`, which cell number change is on record?
A: The cell number change was -19.9%.

Q: What about the AC50 [2] of the same molecule?
A: Its AC50 is 231 nM [falling, full curve, poor fit].

Q: For `CCOC(=O)N1C2=NC(C(=O)OC)=C(C(=O)OC)[C@@H]3Nc4ccccc4[C@]23C[C@H]1C(=O)OC`, which cell number change is on record?
A: Its cell number change is -21.4%.

Q: And the AC50 [1]?
A: Its AC50 is 6510 nM [falling, single point].

Q: Which results are given for `COC(=O)C(C)NC(=O)C(C)NC(=O)OCc1ccccc1` (centres undefined)?
A: cell number change: -111%; AC50 [2]: 29100 nM [falling, single point]

Q: What does the source list for `CN(C)/C=N/c1cc(=O)n(C)c(=O)n1CC1CC1`?
A: cell number change: 19.2%; AC50 [1]: 14600 nM [rising, partial curve]

Q: What does the source list for `CC(C)(C)CN1CCNC(=O)C1CC(=O)NCCc1ccccc1F` (centres undefined)?
A: cell number change: 3.11%; AC50 [1]: 41.1 nM [falling, full curve, poor fit]

Q: Which cell number change does the source give for `C=CCS(=O)(=O)N1CCCC(C(=O)c2cccc(Cl)c2)C1` (centres undefined) here?
A: Its cell number change is 8.97%.

Q: With `COC(=O)c1ccc(C23CC4(C2)[C@H](CN(Cc2ccc(-c5ccccc5)cc2)[C@@H]4c2ccccc2)C3c2ccc(Cl)nc2)cc1` (some centres undefined) as the molecule, how does the cell number change read?
A: The cell number change was 12%.

Q: What about the AC50 [1] of the same molecule?
A: The AC50 was 8200 nM [rising, partial curve, poor fit].

Q: For `O=C(Cn1c(COc2ccccc2)nc2ccccc21)Nc1cc(Cl)ccc1Cl`, which cell number change is on record?
A: The cell number change was -23.9%.

Q: What about the AC50 [2] of the same molecule?
A: Its AC50 is 651 nM [falling, full curve, poor fit].

Q: Which cell number change does the source give for `O=C(O)Cn1c(=O)c2c3c(sc2n(Cc2ccc(F)cc2)c1=O)CCCC3` here?
A: The cell number change was 9.74%.

Q: What about the AC50 [1] of the same molecule?
A: Its AC50 is 920 nM [falling, single point].

Q: With `COC(=O)Cn1cnc2scc(-c3ccc(C)c(C)c3)c2c1=O` as the molecule, how does the cell number change read?
A: Its cell number change is 5.07%.

Q: What about the AC50 [1] of the same molecule?
A: The AC50 was 58 nM [rising, full curve, poor fit].

Q: What does the source list for `CCSc1nc2c(c(=O)[nH]1)C(C(C)C)C(C#N)=C(N)O2` (centres undefined)?
A: cell number change: 19.5%; AC50 [1]: 130 nM [rising, full curve]

Q: Which cell number change does the source give for `O=C(COC(=O)CNC(=O)c1ccc([N+](=O)[O-])o1)Nc1ncc(C(F)(F)F)cc1Cl` here?
A: The cell number change was -5.56%.

Q: What about the AC50 [1] of the same molecule?
A: Its AC50 is 1840 nM [falling, single point].

Q: For `CN(C(=O)CSc1nnc(-c2ccc(OC(F)F)cc2)n1N)C1CCS(=O)(=O)C1` (centres undefined), which cell number change is on record?
A: Its cell number change is -28%.

Q: And the AC50 [1]?
A: The AC50 was 259 nM [falling, full curve].

Q: Which results are given for `O=[N+]([O-])c1ccc(N2CCNCC2)c(S(=O)(=O)N2CCOCC2)c1`?
A: cell number change: -1.66%; AC50 [1]: 731 nM [falling, single point]

Q: For `O=C(OCc1nnc(-c2ccccc2)o1)c1cccc(S(=O)(=O)N2CCOCC2)c1`, which cell number change is on record?
A: Its cell number change is 133%.

Q: What about the AC50 [2] of the same molecule?
A: Its AC50 is 29100 nM [rising, single point].

Q: And the AC50 [1]?
A: The AC50 was 29100 nM [rising, single point].

Q: With `CC(=O)N1CCN(C(=O)c2cccc(S(=O)(=O)N3CCN(c4ccccc4)CC3)c2)CC1` as the molecule, how does the cell number change read?
A: The cell number change was -34.3%.

Q: What about the AC50 [2] of the same molecule?
A: Its AC50 is 29100 nM [falling, single point].

Q: What about the AC50 [1] of the same molecule?
A: Its AC50 is 411 nM [falling, full curve, poor fit].

Q: Which cell number change does the source give for `CCOC(=O)c1[nH]c(C)c(C(=O)OCc2ccccc2F)c1C` here?
A: Its cell number change is 13.8%.

Q: With `O=C(Nc1cccnc1Cl)c1cccc(S(=O)(=O)N2CCOCC2)c1` as the molecule, how does the cell number change read?
A: Its cell number change is 4.7%.

Q: With `Cc1cc(O)cc(O)c1C=NCc1ccco1` as the molecule, how does the cell number change read?
A: Its cell number change is -52.1%.

Q: And the AC50 [2]?
A: The AC50 was 29100 nM [falling, single point].

Q: And the AC50 [1]?
A: The AC50 was 29100 nM [falling, single point].

Q: For `CCN=C1SC(CC(=O)NC(N)=O)C(=O)N1CC` (centres undefined), which cell number change is on record?
A: The cell number change was -6.82%.

Q: What about the AC50 [1] of the same molecule?
A: The AC50 was 2910 nM [falling, partial curve].

Q: For `COc1ccccc1CC(NC(C)=O)C(=O)NC1CCN(C(=O)Nc2cccc(F)c2)CC1` (centres undefined), which cell number change is on record?
A: Its cell number change is -4.03%.

Q: What about the AC50 [1] of the same molecule?
A: Its AC50 is 14600 nM [falling, partial curve, poor fit].

Q: Which cell number change does the source give for `COc1ccc(C2c3c(ncn(CCN4CCOCC4)c3=N)Oc3ccc4ccccc4c32)cc1` (centres undefined) here?
A: The cell number change was -9.76%.

Q: And the AC50 [2]?
A: The AC50 was 1030 nM [rising, partial curve].

Q: And the AC50 [1]?
A: Its AC50 is 2310 nM [rising, partial curve].

Q: With `Cc1cc(O)c(C(=O)/C=C/c2ccccc2Br)c(=O)o1` as the molecule, how does the AC50 [1] read?
A: The AC50 was 6510 nM [falling, partial curve, poor fit].

Q: Which cell number change does the source give for `NS(=O)(=O)c1ccc(NC(=O)CSc2ncnc3ccccc23)cc1` here?
A: The cell number change was -29.4%.

Q: What about the AC50 [2] of the same molecule?
A: The AC50 was 2910 nM [falling, full curve, poor fit].

Q: And the AC50 [1]?
A: The AC50 was 2310 nM [falling, full curve].

Q: With `O=C(NCCSCc1c(F)cccc1Cl)c1ccco1` as the molecule, how does the cell number change read?
A: The cell number change was -38.4%.

Q: And the AC50 [2]?
A: Its AC50 is 9200 nM [falling, partial curve, poor fit].

Q: And the AC50 [1]?
A: Its AC50 is 32600 nM [falling, single point].

Q: What does the source list for `COCCN(CCOC)C(=O)c1ccc(NS(=O)(=O)c2ccc3c(c2)OCCO3)cc1`?
A: cell number change: 13.6%; AC50 [1]: 32600 nM [rising, single point]

Q: With `COC(=O)c1cc(OC)c(OC)cc1NC(=S)N1CCN(c2ccccc2)CC1` as the molecule, how does the cell number change read?
A: Its cell number change is 104%.

Q: What about the AC50 [2] of the same molecule?
A: The AC50 was 1460 nM [rising, partial curve].

Q: And the AC50 [1]?
A: The AC50 was 259 nM [rising, partial curve].
